From publication PMC5602300
These are yes or no findings as the source states them, for the method shown. In cells and extracts the contact can be indirect. Some entries that bind do so weakly or less than the wild type. Tags and fused reporters may be left off the sequences shown.

What was measured:
Assay in all cases: pull-down + SEC; subunits co-expressed in Sf9 (MultiBac); His-tag purification on Ni-NTA, then Superose 6 gel filtration in 20 mM HEPES, 150 mM KCl, 1 mM DTT, pH 7.5
Astrin 465–693 (human) = biological target: T1, Astrin 465–693 (human) (UniProt Q96R06)
T1 sequence: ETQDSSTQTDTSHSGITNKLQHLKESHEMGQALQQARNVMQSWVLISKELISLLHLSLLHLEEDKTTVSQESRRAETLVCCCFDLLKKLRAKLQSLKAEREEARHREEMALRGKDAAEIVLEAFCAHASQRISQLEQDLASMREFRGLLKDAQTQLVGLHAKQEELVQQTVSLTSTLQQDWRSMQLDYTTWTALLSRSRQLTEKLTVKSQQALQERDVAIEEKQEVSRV

[1] = biological target: T2, Astrin 465–693 region without the predicted loop 465–482 (human) (UniProt Q96R06)
T2 sequence: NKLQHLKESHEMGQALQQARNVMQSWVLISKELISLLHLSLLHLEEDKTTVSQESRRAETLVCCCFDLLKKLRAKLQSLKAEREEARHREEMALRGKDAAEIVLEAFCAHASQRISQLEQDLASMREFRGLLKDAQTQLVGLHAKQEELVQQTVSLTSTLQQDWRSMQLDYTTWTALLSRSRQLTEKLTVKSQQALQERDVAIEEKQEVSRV

Astrin 1–693 (human) = biological target: T3, Astrin 1–693 (human) (UniProt Q96R06)
T3 sequence: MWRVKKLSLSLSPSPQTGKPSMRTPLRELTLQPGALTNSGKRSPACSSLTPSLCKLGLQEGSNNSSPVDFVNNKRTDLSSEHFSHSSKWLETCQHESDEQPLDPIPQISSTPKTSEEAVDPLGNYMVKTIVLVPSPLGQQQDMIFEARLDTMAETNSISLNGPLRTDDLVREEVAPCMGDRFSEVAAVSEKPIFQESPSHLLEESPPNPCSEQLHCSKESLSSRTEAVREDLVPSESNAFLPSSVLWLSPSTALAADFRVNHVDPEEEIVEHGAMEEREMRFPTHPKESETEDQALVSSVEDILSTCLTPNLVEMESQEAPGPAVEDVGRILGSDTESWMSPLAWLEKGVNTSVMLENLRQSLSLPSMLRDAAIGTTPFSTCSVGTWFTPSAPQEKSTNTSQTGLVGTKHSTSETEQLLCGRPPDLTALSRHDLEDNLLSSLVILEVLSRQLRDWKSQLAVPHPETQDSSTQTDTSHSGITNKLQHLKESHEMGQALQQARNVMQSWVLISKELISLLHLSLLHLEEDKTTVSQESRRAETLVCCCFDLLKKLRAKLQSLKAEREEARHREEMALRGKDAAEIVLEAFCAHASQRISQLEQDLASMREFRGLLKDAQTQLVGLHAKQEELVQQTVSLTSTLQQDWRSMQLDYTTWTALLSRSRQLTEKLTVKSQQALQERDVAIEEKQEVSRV

Astrin 324–693 (human) = biological target: T4, Astrin 324–693 (human) (UniProt Q96R06)
T4 sequence: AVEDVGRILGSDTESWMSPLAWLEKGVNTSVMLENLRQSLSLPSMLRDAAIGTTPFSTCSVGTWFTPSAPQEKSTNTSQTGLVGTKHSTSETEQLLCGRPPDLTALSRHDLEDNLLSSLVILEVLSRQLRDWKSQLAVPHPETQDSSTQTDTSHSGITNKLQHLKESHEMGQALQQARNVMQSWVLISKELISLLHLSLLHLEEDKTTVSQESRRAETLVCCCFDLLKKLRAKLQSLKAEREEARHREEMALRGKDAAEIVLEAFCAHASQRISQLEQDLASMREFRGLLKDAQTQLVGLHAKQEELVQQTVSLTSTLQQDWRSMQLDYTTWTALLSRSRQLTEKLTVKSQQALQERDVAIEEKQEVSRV

[2] = biological target: T5, Astrin, full length (subunit of the reconstituted Astrin-SKAP complex) (human) (UniProt Q96R06)
T5 sequence: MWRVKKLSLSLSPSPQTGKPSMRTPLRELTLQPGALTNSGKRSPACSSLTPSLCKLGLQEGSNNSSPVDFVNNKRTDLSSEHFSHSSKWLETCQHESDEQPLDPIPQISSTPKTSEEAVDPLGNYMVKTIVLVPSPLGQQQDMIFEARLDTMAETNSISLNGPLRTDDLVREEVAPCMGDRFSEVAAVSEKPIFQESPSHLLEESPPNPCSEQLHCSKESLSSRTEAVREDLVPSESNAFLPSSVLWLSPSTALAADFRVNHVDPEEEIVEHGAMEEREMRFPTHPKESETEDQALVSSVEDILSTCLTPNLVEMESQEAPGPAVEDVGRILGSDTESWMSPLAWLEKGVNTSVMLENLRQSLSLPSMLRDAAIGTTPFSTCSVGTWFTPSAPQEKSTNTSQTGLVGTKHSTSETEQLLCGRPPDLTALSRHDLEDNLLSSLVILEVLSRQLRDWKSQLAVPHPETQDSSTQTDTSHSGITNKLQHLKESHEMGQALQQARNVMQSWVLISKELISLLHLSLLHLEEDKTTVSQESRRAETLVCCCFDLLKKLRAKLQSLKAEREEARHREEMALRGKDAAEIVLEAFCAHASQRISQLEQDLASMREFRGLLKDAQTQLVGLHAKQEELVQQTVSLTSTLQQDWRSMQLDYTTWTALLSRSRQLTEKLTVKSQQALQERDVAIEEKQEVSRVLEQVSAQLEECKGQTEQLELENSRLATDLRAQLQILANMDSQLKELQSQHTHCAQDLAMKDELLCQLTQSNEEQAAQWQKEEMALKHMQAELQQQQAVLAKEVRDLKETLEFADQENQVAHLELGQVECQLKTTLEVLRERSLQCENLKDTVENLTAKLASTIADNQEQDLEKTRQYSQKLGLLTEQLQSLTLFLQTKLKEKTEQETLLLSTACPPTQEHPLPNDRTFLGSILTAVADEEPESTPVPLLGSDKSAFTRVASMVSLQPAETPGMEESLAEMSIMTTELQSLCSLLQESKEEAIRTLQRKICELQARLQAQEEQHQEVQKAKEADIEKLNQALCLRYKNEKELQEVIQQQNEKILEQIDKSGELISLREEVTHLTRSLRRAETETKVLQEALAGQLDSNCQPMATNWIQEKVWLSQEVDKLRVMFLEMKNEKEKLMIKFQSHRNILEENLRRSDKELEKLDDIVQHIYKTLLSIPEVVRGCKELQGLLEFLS

binding (Astrin 465–693 (human)): binds
binding [1]: binds
binding (Astrin 1–693 (human)): binds
binding (Astrin 324–693 (human)): binds
binding [2]: binds
B1: MYCBP (protein, UniProt Q99417 1-103)
chain: MAHYKAADSKREQFRRYLEKSGVLDTLTKVLVALYEEPEKPNSALDFLKHHLGAATPENPEIELLRLELAEMKEKYEAIVEENKKLKAKLAQYEPPQEEKRAE
